B1: Protein shisa-5 (protein, UniProt Q8N114 29-240, looked up)
Protein shisa-5: EVCMASRGLSLFPESCPDFCCGTCDDQYCCSDVLKKFVWSEERCAVPEASVPASVEPVEQLGSALRFRPGYNDPMSGFGATLAVGLTIFVLSVVTIIICFTCSCCCLYKTCRRPRPVVTTTTSTTVVHAPYPQPPSVPPSYPGPSYQGYHTMPPQPGMPAAPYPMQYPPPYPAQPMGPPAYHETLAGGAAAPYPASQPPYNPAYMDAPKAAL
B2: Src substrate cortactin (protein, UniProt Q14247 1-550, looked up)
Src substrate cortactin: MWKASAGHAVSIAQDDAGADDWETDPDFVNDVSEKEQRWGAKTVQGSGHQEHINIHKLRENVFQEHQTLKEKELETGPKASHGYGGKFGVEQDRMDKSAVGHEYQSKLSKHCSQVDSVRGFGGKFGVQMDRVDQSAVGFEYQGKTEKHASQKDYSSGFGGKYGVQADRVDKSAVGFDYQGKTEKHESQRDYSKGFGGKYGIDKDKVDKSAVGFEYQGKTEKHESQKDYVKGFGGKFGVQTDRQDKCALGWDHQEKLQLHESQKDYKTGFGGKFGVQSERQDSAAVGFDYKEKLAKHESQQDYSKGFGGKYGVQKDRMDKNASTFEDVTQVSSAYQKTVPVEAVTSKTSNIRANFENLAKEKEQEDRRKAEAERAQRMAKERQEQEEARRKLEEQARAKTQTPPVSPAPQPTEERLPSSPVYEDAASFKAELSYRGPVSGTEPEPVYSMEAADYREASSQQGLAYATEAVYESAEAPGHYPAEDSTYDEYENDLGITAVALYDYQAAGDDEISFDPDDIITNIEMIDDGWWRGVCKGRYGLFPANYVELRQ
B3: Keratin, type II cytoskeletal 2 epidermal (protein, UniProt P35908 1-639, looked up)
Keratin, type II cytoskeletal …: MSCQISCKSRGRGGGGGGFRGFSSGSAVVSGGSRRSTSSFSCLSRHGGGGGGFGGGGFGSRSLVGLGGTKSISISVAGGGGGFGAAGGFGGRGGGFGGGSSFGGGSGFSGGGFGGGGFGGGRFGGFGGPGGVGGLGGPGGFGPGGYPGGIHEVSVNQSLLQPLNVKVDPEIQNVKAQEREQIKTLNNKFASFIDKVRFLEQQNQVLQTKWELLQQMNVGTRPINLEPIFQGYIDSLKRYLDGLTAERTSQNSELNNMQDLVEDYKKKYEDEINKRTAAENDFVTLKKDVDNAYMIKVELQSKVDLLNQEIEFLKVLYDAEISQIHQSVTDTNVILSMDNSRNLDLDSIIAEVKAQYEEIAQRSKEEAEALYHSKYEELQVTVGRHGDSLKEIKIEISELNRVIQRLQGEIAHVKKQCKNVQDAIADAEQRGEHALKDARNKLNDLEEALQQAKEDLARLLRDYQELMNVKLALDVEIATYRKLLEGEECRMSGDLSSNVTVSVTSSTISSNVASKAAFGGSGGRGSSSGGGYSSGSSSYGSGGRQSGSRGGSGGGGSISGGGYGSGGGSGGRYGSGGGSKGGSISGGGYGSGGGKHSSGGGSRGGSSSGGGYGSGGGGSSSVKGSSGEAFGSSVTFSFR
B4: Pro-epidermal growth factor (protein, UniProt P01133 23-1207, looked up)
pro-form: PQHWSCPEGTLAGNGNSTCVGPAPFLIFSHGNSIFRIDTEGTNYEQLVVDAGVSVIMDFHYNEKRIYWVDLERQLLQRVFLNGSRQERVCNIEKNVSGMAINWINEEVIWSNQQEGIITVTDMKGNNSHILLSALKYPANVAVDPVERFIFWSSEVAGSLYRADLDGVGVKALLETSEKITAVSLDVLDKRLFWIQYNREGSNSLICSCDYDGGSVHISKHPTQHNLFAMSLFGDRIFYSTWKMKTIWIANKHTGKDMVRINLHSSFVPLGELKVVHPLAQPKAEDDTWEPEQKLCKLRKGNCSSTVCGQDLQSHLCMCAEGYALSRDRKYCEDVNECAFWNHGCTLGCKNTPGSYYCTCPVGFVLLPDGKRCHQLVSCPRNVSECSHDCVLTSEGPLCFCPEGSVLERDGKTCSGCSSPDNGGCSQLCVPLSPVSWECDCFPGYDLQLDEKSCAASGPQPFLLFANSQDIRHMHFDGTDYGTLLSQQMGMVYALDHDPVENKIYFAHTALKWIERANMDGSQRERLIEEGVDVPEGLAVDWIGRRFYWTDRGKSLIGRSDLNGKRSKIITKENISQPRGIAVHPMAKRLFWTDTGINPRIESSSLQGLGRLVIASSDLIWPSGITIDFLTDKLYWCDAKQSVIEMANLDGSKRRRLTQNDVGHPFAVAVFEDYVWFSDWAMPSVMRVNKRTGKDRVRLQGSMLKPSSLVVVHPLAKPGADPCLYQNGGCEHICKKRLGTAWCSCREGFMKASDGKTCLALDGHQLLAGGEVDLKNQVTPLDILSKTRVSEDNITESQHMLVAEIMVSDQDDCAPVGCSMYARCISEGEDATCQCLKGFAGDGKLCSDIDECEMGVPVCPPASSKCINTEGGYVCRCSEGYQGDGIHCLDIDECQLGEHSCGENASCTNTEGGYTCMCAGRLSEPGLICPDSTPPPHLREDDHHYSVRNSDSECPLSHDGYCLHDGVCMYIEALDKYACNCVVGYIGERCQYRDLKWWELRHAGHGQQQKVIVVAVCVVVLVMLLLLSLWGAHYYRTQKLLSKNPKNPYEESSRDVRSRRPADTEDGMSSCPQPWFVVIKEHQDLKNGGQPVAGEDGQAADGSMQPTSWRQEPQLCGMGTEQGCWIPVSSDKGSCPQVMERSFHMPSYGTQTLEGGVEKPHSLLSANPLWQQRALDPPHQMELTQ
modifications: pro-form
B5: Keratin, type II cytoskeletal 8 (protein, UniProt P05787 1-483, looked up)
Keratin, type II cytoskeletal …: MSIRVTQKSYKVSTSGPRAFSSRSYTSGPGSRISSSSFSRVGSSNFRGGLGGGYGGASGMGGITAVTVNQSLLSPLVLEVDPNIQAVRTQEKEQIKTLNNKFASFIDKVRFLEQQNKMLETKWSLLQQQKTARSNMDNMFESYINNLRRQLETLGQEKLKLEAELGNMQGLVEDFKNKYEDEINKRTEMENEFVLIKKDVDEAYMNKVELESRLEGLTDEINFLRQLYEEEIRELQSQISDTSVVLSMDNSRSLDMDSIIAEVKAQYEDIANRSRAEAESMYQIKYEELQSLAGKHGDDLRRTKTEISEMNRNISRLQAEIEGLKGQRASLEAAIADAEQRGELAIKDANAKLSELEAALQRAKQDMARQLREYQELMNVKLALDIEIATYRKLLEGEESRLESGMQNMSIHTKTTSGYAGGLSSAYGGLTSPGLSYSLGSSFGSGAGSSSFSRTSSSRAVVVKKIETRDGKLVSESSDVLPK
B6: Trefoil factor 2 (protein, UniProt Q03403 24-129, looked up)
Trefoil factor 2: EKPSPCQCSRLSPHNRTNCGFPGITSDQCFDNGCCFDSSVTGVPWCFHPLPKQESDQCVMEVSDRRNCGYPGISPEECASRKCCFSNFIFEVPWCFFPKSVEDCHY
B7: Secreted and transmembrane protein 1 (protein, UniProt Q8WVN6 29-248, looked up)
Secreted and transmembrane …: QNEGWDSPICTEGVVSVSWGENTVMSCNISNAFSHVNIKLRAHGQESAIFNEVAPGYFSRDGWQLQVQGGVAQLVIKGARDSHAGLYMWHLVGHQRNNRQVTLEVSGAEPQSAPDTGFWPVPAVVTAVFILLVALVMFAWYRCRCSQQRREKKFFLLEPQMKVAALRAGAQQGLSRASAELWTPDSEPTPRPLALVFKPSPLGALELLSPQPLFPYAADP
B8: Carboxypeptidase N subunit 2 (protein, UniProt P22792 22-545, looked up)
Carboxypeptidase N subunit 2: CPMGCDCFVQEVFCSDEELATVPLDIPPYTKNIIFVETSFTTLETRAFGSNPNLTKVVFLNTQLCQFRPDAFGGLPRLEDLEVTGSSFLNLSTNIFSNLTSLGKLTLNFNMLEALPEGLFQHLAALESLHLQGNQLQALPRRLFQPLTHLKTLNLAQNLLAQLPEELFHPLTSLQTLKLSNNALSGLPQGVFGKLGSLQELFLDSNNISELPPQVFSQLFCLERLWLQRNAITHLPLSIFASLGNLTFLSLQWNMLRVLPAGLFAHTPCLVGLSLTHNQLETVAEGTFAHLSNLRSLMLSYNAITHLPAGIFRDLEELVKLYLGSNNLTALHPALFQNLSKLELLSLSKNQLTTLPEGIFDTNYNLFNLALHGNPWQCDCHLAYLFNWLQQYTDRLLNIQTYCAGPAYLKGQVVPALNEKQLVCPVTRDHLGFQVTWPDESKAGGSWDLAVQERAARSQCTYSNPEGTVVLACDQAQCRWLNVQLSPQQGSLGLQYNASQEWDLRSSCGSLRLTVSIEARAAGP
B9: Keratin, type I cytoskeletal 14 (protein, UniProt P02533 1-472, looked up)
Keratin, type I cytoskeletal …: MTTCSRQFTSSSSMKGSCGIGGGIGGGSSRISSVLAGGSCRAPSTYGGGLSVSSSRFSSGGACGLGGGYGGGFSSSSSSFGSGFGGGYGGGLGAGLGGGFGGGFAGGDGLLVGSEKVTMQNLNDRLASYLDKVRALEEANADLEVKIRDWYQRQRPAEIKDYSPYFKTIEDLRNKILTATVDNANVLLQIDNARLAADDFRTKYETELNLRMSVEADINGLRRVLDELTLARADLEMQIESLKEELAYLKKNHEEEMNALRGQVGGDVNVEMDAAPGVDLSRILNEMRDQYEKMAEKNRKDAEEWFFTKTEELNREVATNSELVQSGKSEISELRRTMQNLEIELQSQLSMKASLENSLEETKGRYCMQLAQIQEMIGSVEEQLAQLRCEMEQQNQEYKILLDVKTRLEQEIATYRRLLEGEDAHLSSSQFSSGSQSSRDVTSSSRQIRTKVMDVHDGKVVSTHEQVLRTKN
B10: Phosphoinositide-3-kinase-interacting protein 1 (protein, UniProt Q96FE7 22-263, looked up)
Phosphoinositide-3-kinase-inte …: SGGCFWDNGHLYREDQTSPAPGLRCLNWLDAQSGLASAPVSGAGNHSYCRNPDEDPRGPWCYVSGEAGVPEKRPCEDLRCPETTSQALPAFTTEIQEASEGPGADEVQVFAPANALPARSEAAAVQPVIGISQRVRMNSKEKKDLGTLGYVLGITMMVIIIAIGAGIILGYSYKRGKDLKEQHDQKVCEREMQRITLPLSAFTNPTCEIVDEKTVVVHTSQTPVDPQEGTTPLMGQAGTPGA
B11: Growth/differentiation factor 15 (protein, UniProt Q99988 195-308, looked up)
Growth/differentiation factor …: ARARNGDHCPLGPGRCCRLHTVRASLEDLGWADWVLSPREVQVTMCIGACPSQFRAANMHAQIKTSLHRLKPDTVPAPCCVPASYNPMVLIQKTDTGVSLQTYDDLLAKDCHCI
B12: Tumor necrosis factor receptor superfamily member 14 (protein, UniProt Q92956 39-283, looked up)
Tumor necrosis factor …: LPSCKEDEYPVGSECCPKCSPGYRVKEACGELTGTVCEPCPPGTYIAHLNGLSKCLQCQMCDPAMGLRASRNCSRTENAVCGCSPGHFCIVQDGDHCAACRAYATSSPGQRVQKGGTESQDTLCQNCPPGTFSPNGTLEECQHQTKCSWLVTKAGAGTSSSHWVWWFLSGSLVIVIVCSTVGLIICVKRRKPRGDVVKVIVSVQRKRQEAEGEATVIEALQAPPDVTTVAVEETIPSFTGRSPNH

Test: RRT study: LC-MS/MS urinary proteomics, AKI after cardiac surgery, RRT vs No RRT
Design: species or system human
Details: patients who did vs did not require RRT/dialysis; for Up or Down: direction of differential abundance

Molecule	Up or Down	Mean Fold Change
B1	Down	2.413
B2	Down	5.782
B3	Down	2.673
B4	Down	1.18
B5	Down	2.543
B6	Down	1.741
B7	Down	2.139
B8	Down	1.661
B9	Down	12.58
B10	Down	1.041
B11	Down	1.011
B12	Down	3.609

Source: patent US20140038203A1, “METHODS FOR DETECTING OR PREDICTING KIDNEY DISEASE” (MUSC FOUNDATION FOR RESEARCH DEVELOPMENT, priority 2012, published 2014)
